Results: PMC12040169 (PLOS Biology, 2025)
The list shows a part of the results.

What follows are compounds tested on T1, CTL2-GFP (C. trachomatis L2/434/Bu, GFP-expressing). Settings: bulk GFP, single well; 28.5 h, 10 µM; inhibitor.
T1 construct: L2/434/Bu, GFP-expressing
Parameters: species or system HeLa; Intracellular C. trachomatis growth in HeLa cells, bulk GFP fluorescence relative to DMSO

SMILES	% of control remaining [%]
O=C(CSc1nnc(COc2ccc(Br)cc2)o1)OC1CCCCC1 [CBK027482]	150.06
Cc1ccc(S(=O)(=O)NCCc2cn3ccc(C)cc3n2)cc1 [CBK287630]	133.222
C[C@H]1CN2C[C@H](O)CC2CN1Cc1cccn1Cc1ccccc1F (stereo partly shown) [CBK285165]	108.802
O=C(Nc1nccs1)c1c(O)n(Cc2ccccc2)c2ccccc2c1=O [CBK291173]	136.21
Cc1ccc(-c2ccc(CCC(=O)O)n2NC(N)=S)cc1 [CBK265870]	230.119
O=S(=O)(Oc1ccc(-c2cnc3ccccc3n2)cc1)c1ccccc1 [CBK261104]	100
CCCc1ccc(S(=O)(=O)NCC(=O)OCC)cc1 [CBK034429]	70.8344
Cc1cc(C[C@@H]2CCC[C@H]2NCc2ccncc2)on1 [CBK284934]	93.3217
Fc1ccc(CN2CCC3(C2)c2[nH]c4ccccc4c2CCN3Cc2ccc(F)cc2)cc1 (stereo not shown) [CBK059467]	164.373
CCc1cc(CNC(=O)C2CN(Cc3ccc(Cl)cc3)C2)on1 [CBK281564]	100.954
CC[C@H]1C[N@@]2CC[C@H]1C[C@@H]2CNC(=O)Nc1cccc(C#N)c1 [CBK288748]	131.739
CCOC(=O)c1c(NC(=O)CN2CCCCC2)sc2c1CCCC2O (stereo not shown) [CBK261644]	121.745
C/C(C(=O)O)=C(/C)C(=O)N1CCC2(CC1)NCCc1c2[nH]c2ccc(C)cc12 [CBK047026]	95.0244
O=C1CC2(CCN(C(=O)c3ccccc3F)CC2)Oc2c(Cl)cc(Cl)cc21 [CBK156453]	103.894
O=C(CSc1ccccc1)Nc1cccc(NC(=O)c2cccs2)c1 [CBK266788]	129.111
O=C(CN1CCC(NC(=O)c2cccs2)CC1)NCc1ccccc1F [CBK304901]	133.72
COc1cc(CNc2cncc(-c3ccc(F)cc3F)n2)cc(OC)c1OC [CBK065826]	103.297
COCC(=O)N1CCN(C(=O)c2cccs2)[C@@H](C(=O)OC)C1 [CBK289614]	102.238
C[C@H](NC(=O)C1CCN(C(=O)OC(C)(C)C)CC1)C(=O)O [CBK286730]	145.594
CCN(Cc1ccccc1)C(=O)Nc1ccc2c(c1)OCCO2 [CBK155231]	100
O=C(CN1C(=O)c2ccccc2S1(=O)=O)Nc1ccccc1C(=O)N1CCOCC1 [CBK266975]	147.747
O=C(CCc1ccccc1)NNC(=O)C1C2C=CC(C2)C1C(=O)O (stereo not shown) [CBK267541]	132.042
N=C(N)NCc1ccc(Cl)cc1 [CBK002260]	157.672
CCOc1ccc(-c2ccnc(N3CCN(CC)CC3)n2)cc1C(=O)O [CBK307697]	128.92
O=C1NC2CS(=O)(=O)CC2N1Cc1ccccc1 (stereo not shown) [CBK009306]	101.161
Nc1ccc(Oc2ccc3nc4c5cc(I)ccc5c5ccc(I)cc5c4nc3c2)cc1 [CBK261978]	90.7208
Nc1ncnc2c1nc(SCc1ccccc1)n2Cc1ccccc1 [CBK288181]	106.448

7 of these compounds, reformatted:
SMILES | % of control remaining [%]
Cc1ccc(-c2ccc(CCC(=O)O)n2NC(N)=S)cc1 [CBK265870] | 230.119
CCc1cc(CNC(=O)C2CN(Cc3ccc(Cl)cc3)C2)on1 [CBK281564] | 100.954
CC[C@H]1C[N@@]2CC[C@H]1C[C@@H]2CNC(=O)Nc1cccc(C#N)c1 [CBK288748] | 131.739
CCOC(=O)c1c(NC(=O)CN2CCCCC2)sc2c1CCCC2O (stereo not shown) [CBK261644] | 121.745
COCC(=O)N1CCN(C(=O)c2cccs2)[C@@H](C(=O)OC)C1 [CBK289614] | 102.238
CCN(Cc1ccccc1)C(=O)Nc1ccc2c(c1)OCCO2 [CBK155231] | 100
N=C(N)NCc1ccc(Cl)cc1 [CBK002260] | 157.672

Next part

SMILES	% of control remaining [%]
Nc1nnc(Sc2nccnc2N2CCCC2)s1 [CBK093804]	130.538
NC(=O)[C@@H]1C[C@@H](O)[C@H](O)[C@H]2[C@@H]1N(c1ccc(Cl)cc1)C(=S)N2CC1CCCCC1 [CBK288933]	120.393
Cc1cc(COC(=O)Nc2ccc(Cl)cc2)no1 [CBK086560]	104.467
Cc1ccc2nc(-c3ccc(NC(=O)CSc4nnc(C)s4)cc3)sc2c1 [CBK266185]	221.961
c1ccc(OCCN2CCCN(c3nccc(OCC4COc5ccccc5O4)n3)CC2)cc1 (stereo not shown) [CBK083980]	120.184
O=S(=O)(CC(CN1CCCCC1)N1CCCCC1)c1ccc2ccccc2c1 (stereo not shown) [CBK267087]	123.711
COC(=O)c1cc(NC(=O)OC(C)(C)C)ccc1O [CBK016529]	154.177
CC(C)(CC(=O)O)CC(=O)Nc1ccc(N2CCCC2=O)cc1 [CBK299787]	94.6878
FC(F)(F)c1ccnc(OCc2cccnc2)c1 [CBK115784]	64.7603
CCOC(=O)CC1C(=O)NCCN1Cc1ccoc1 (stereo not shown) [CBK270066]	145.695
CC(=O)Nc1ccc(S(=O)(=O)N2CCN(c3ccc([N+](=O)[O-])cc3C(F)(F)F)CC2)cc1 [CBK264944]	83.3361
Cc1nc2ccc(NC(=O)CCn3nc(C)c(Cl)c3C)cc2s1 [CBK281634]	94.8033
O=C(O)C1(c2ccc(Br)cc2)CCCC1 [CBK287134]	118.065
CCN1C(=O)COC[C@@H]1[C@H](O)c1ccc(NC(=O)COc2ccccc2)cc1 [CBK289685]	134.889
COc1ccc(N2CCN(c3cncc(-c4cccc(N)c4)n3)CC2)cc1OC [CBK066126]	176.36
CN(C)CCSc1nc2cc(Cl)ccc2o1 [CBK266337C]	108.403
COc1ccccc1CNC(=O)c1cnc2sc(C)cn2c1=O [CBK287708]	119.609
COc1cc(/C=N/N=C(/Nc2ccc(C)cc2)c2nc3ccccc3s2)ccc1O [CBK265029]	128.635
COc1cc(C(c2nnnn2C2CCCCC2)N2CCN(C)CC2)cc(OC)c1OC (stereo not shown) [CBK142338C]	122.213
CC(=O)N1CCN(c2ccc(NC(=O)CSc3ccc(C)cc3)cc2)CC1 [CBK269854]	113.649
O=C(Cn1c(C2CCCNC2)cc2cccnc21)N1CCCC1 (stereo not shown) [CBK285060]	139.249
O=C(CCc1ccncc1)N1CCOC(c2ccc(F)cc2F)C1 (stereo not shown) [CBK304692]	107.689
CC(C)(C)C(=O)N1CCC(c2nnc(-c3ccsc3)o2)CC1 [CBK283378]	115.261
COC(=O)c1cccc(COC(=O)c2ccc3nc(C)c(C)nc3c2)c1 [CBK269641]	104.03
Cc1cn(C(C)C(=O)N(C)C)nc1C1CCCCC1 (stereo not shown) [CBK016092]	110.37
Cc1nc2ccc(C(=O)N(C)CCN(C)C)cn2c1N(C)CC1CCCCC1 [CBK145894]	139.839
Cc1ccc(S(=O)(=O)N2CCN(CC(O)COc3ccc4ccccc4c3)CC2)cc1 (stereo not shown) [CBK266239]	120.623

SMILES	% of control remaining [%]
Cc1nnc(N/N=C/c2cn(Cc3c(F)cccc3Cl)c3ccccc23)n1N [CBK278277C]	107.527
CC(C)c1ccc(N2C(=O)[C@@H]3C[C@@H](NC(=O)c4cccn4C)CCN3C2=O)cc1 [CBK289547]	108.124
Cn1ccnc1CN1CCNC(=O)C1c1ccccc1C(F)(F)F (stereo not shown) [CBK306415]	98.4775
O=C(c1n[nH]nc1-c1ccccc1)N1CCCC(C(F)(F)F)C1 (stereo not shown) [CBK164228]	139.502
CCCNc1cncc(-c2cccc(F)c2)n1 [CBK065441]	99.7552
CCCNCCc1ccc2c(c1)C(=O)N(Cc1ccc(OC)cc1)C2=O [CBK011826C]	122.632
O=c1oc(-c2cccc(F)c2)nc2cc(Cc3ccc4c(=O)oc(-c5cccc(F)c5)nc4c3)ccc12 [CBK262775]	91.2436
CCOC(=O)c1cnc(C2CC2)nc1NCc1cccc(C)c1C [CBK114707]	110.305
COc1cccc(NC(=O)c2cc3ccccc3o/c2=N\O)c1 [CBK288387]	195.818
Cc1cccnc1C(NC(=O)C1CCN(S(=O)(=O)c2cccs2)CC1)c1cccs1 (stereo not shown) [CBK060147]	96.9912
CC(C)NC(=O)C1CC2CCC1(C)CC21NC(=O)c2ccccc2O1 (stereo not shown) [CBK285261]	120.13
Cc1ccc(SC(C)C(=O)Nc2cc(Cl)ccc2O)cc1 (stereo not shown) [CBK268610]	115.321
O=C(c1ccccn1)C1CCCN(c2nccc(CCC(F)(F)F)n2)C1 (stereo not shown) [CBK306775]	34.0231
COCCOCN1C(=O)CC2(C1=O)C(=O)N(CC(=O)O)c1ccc(F)cc12 (stereo not shown) [CBK076163]	144.457
NS(=O)(=O)c1ccc(CCNC(=O)c2ccccc2Oc2ccccc2)cc1 [CBK264394]	100
COC(=O)c1cc(C(=O)Nc2ccc(OCCC(N)=O)cc2)c[nH]1 [CBK305486]	112.33
Cc1ccc(C(=O)NCc2cccnc2)c(N2CCN(C(=O)c3ccco3)CC2)n1 [CBK076444]	126.411
CC1=CC(c2ccccc2)N2N=C(NC(=O)CCCC(=O)O)NC2=N1 (stereo not shown) [CBK287037]	128.98
Cc1cc(Br)cc(C)c1OCCNCCN(C)C [CBK267808G]	86.0766
O=C(c1ccc2ncccc2c1)N1CCc2ccccc21 [CBK200403]	157.781
CCC(CC)C(=O)N1CCC(CNc2cnc(-c3ccc(S(C)(=O)=O)cc3)cn2)CC1 [CBK172021]	74.9921
FC(F)(F)c1nc2ccccc2nc1SCCc1ccccc1 [CBK107204]	100
O=C1CC(NCc2ccc3c(c2)OCO3)C(=O)N1c1ccc(OC(F)(F)Cl)cc1 (stereo not shown) [CBK074357]	103.811
O=C(C1CC1)N1CCCC(c2nc(-c3cccs3)no2)C1 (stereo not shown) [CBK281944]	147.778
Cc1nnnn1-c1ccc(CC(=O)N2CCc3sccc3C2c2ccccc2)cc1 (stereo not shown) [CBK285567]	117.519
